These are yes or no findings as the source states them, for the method shown. Binding seen in cells or lysates may run through a third protein. A yes stands for co-enrichment or nearness to the bait. Other partners may have been found. For some assays here: A no says only that the protein was not detected with the bait. Where a sequence is shown, tags or fusion partners need not be part of it.

Protein sequences, listed by entry. Tags and fused reporters are not part of them. Lines headed by an entry give the natural chain unless they say otherwise; changes in a name come on top.
UniProt Q6PSL5: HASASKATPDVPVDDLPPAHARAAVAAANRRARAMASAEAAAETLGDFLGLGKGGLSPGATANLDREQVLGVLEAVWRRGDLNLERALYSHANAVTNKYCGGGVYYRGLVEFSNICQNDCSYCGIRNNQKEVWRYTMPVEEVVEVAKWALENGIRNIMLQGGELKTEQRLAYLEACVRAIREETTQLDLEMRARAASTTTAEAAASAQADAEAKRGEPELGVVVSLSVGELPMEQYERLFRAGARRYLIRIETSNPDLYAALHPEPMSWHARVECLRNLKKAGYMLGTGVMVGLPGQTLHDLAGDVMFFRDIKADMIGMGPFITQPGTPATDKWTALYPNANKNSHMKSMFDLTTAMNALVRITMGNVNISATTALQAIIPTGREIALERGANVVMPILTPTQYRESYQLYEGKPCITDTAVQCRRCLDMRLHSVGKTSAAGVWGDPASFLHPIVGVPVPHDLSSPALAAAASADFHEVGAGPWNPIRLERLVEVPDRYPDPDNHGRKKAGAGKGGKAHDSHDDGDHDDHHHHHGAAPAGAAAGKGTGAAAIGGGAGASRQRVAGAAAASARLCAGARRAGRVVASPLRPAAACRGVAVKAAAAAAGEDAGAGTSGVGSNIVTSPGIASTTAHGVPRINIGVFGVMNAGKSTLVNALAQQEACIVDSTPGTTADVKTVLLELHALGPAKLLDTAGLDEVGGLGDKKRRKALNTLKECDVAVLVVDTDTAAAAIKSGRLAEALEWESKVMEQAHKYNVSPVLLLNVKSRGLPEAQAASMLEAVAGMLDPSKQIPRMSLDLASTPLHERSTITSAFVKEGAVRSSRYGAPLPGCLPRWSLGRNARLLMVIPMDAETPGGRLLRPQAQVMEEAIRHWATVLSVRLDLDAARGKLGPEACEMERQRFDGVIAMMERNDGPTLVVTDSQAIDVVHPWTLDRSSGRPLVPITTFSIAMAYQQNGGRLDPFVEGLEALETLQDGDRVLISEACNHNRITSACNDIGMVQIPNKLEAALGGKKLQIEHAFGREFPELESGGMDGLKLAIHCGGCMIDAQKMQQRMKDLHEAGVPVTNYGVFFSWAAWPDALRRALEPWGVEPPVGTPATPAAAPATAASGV
UniProt Q39603: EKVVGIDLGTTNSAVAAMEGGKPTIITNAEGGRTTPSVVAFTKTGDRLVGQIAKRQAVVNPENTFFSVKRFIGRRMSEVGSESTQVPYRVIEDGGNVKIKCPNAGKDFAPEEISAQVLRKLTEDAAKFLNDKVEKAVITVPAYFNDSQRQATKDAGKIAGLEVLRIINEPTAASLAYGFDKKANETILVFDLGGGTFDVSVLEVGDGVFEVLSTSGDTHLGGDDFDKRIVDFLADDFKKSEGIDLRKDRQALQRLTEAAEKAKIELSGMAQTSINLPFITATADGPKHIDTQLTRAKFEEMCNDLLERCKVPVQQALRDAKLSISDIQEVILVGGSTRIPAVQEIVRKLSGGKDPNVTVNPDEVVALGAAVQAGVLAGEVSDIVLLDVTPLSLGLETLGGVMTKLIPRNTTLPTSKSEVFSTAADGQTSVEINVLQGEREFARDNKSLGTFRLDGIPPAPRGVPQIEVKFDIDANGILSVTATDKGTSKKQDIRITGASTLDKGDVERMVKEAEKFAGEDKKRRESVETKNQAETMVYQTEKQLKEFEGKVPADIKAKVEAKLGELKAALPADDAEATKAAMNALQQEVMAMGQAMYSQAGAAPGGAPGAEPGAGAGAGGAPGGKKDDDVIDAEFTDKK
UniProt A0ACM8PZH8: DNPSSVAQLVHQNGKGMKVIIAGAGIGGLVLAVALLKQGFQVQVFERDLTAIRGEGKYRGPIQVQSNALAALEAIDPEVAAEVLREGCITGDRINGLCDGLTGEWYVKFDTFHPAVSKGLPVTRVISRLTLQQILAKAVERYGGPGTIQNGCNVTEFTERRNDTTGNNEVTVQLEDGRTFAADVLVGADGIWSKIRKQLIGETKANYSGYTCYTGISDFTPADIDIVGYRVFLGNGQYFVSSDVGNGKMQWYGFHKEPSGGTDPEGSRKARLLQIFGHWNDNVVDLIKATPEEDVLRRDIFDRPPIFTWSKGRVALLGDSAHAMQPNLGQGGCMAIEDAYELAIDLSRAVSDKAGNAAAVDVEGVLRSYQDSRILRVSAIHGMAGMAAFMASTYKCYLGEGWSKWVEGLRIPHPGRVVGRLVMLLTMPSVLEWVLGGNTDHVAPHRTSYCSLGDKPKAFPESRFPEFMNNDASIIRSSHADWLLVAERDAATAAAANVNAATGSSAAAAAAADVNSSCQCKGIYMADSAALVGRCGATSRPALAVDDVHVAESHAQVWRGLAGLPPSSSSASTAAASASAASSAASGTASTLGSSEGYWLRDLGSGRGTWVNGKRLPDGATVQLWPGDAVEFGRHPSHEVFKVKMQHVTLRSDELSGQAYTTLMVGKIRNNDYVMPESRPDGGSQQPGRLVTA
UniProt Q7PCJ6: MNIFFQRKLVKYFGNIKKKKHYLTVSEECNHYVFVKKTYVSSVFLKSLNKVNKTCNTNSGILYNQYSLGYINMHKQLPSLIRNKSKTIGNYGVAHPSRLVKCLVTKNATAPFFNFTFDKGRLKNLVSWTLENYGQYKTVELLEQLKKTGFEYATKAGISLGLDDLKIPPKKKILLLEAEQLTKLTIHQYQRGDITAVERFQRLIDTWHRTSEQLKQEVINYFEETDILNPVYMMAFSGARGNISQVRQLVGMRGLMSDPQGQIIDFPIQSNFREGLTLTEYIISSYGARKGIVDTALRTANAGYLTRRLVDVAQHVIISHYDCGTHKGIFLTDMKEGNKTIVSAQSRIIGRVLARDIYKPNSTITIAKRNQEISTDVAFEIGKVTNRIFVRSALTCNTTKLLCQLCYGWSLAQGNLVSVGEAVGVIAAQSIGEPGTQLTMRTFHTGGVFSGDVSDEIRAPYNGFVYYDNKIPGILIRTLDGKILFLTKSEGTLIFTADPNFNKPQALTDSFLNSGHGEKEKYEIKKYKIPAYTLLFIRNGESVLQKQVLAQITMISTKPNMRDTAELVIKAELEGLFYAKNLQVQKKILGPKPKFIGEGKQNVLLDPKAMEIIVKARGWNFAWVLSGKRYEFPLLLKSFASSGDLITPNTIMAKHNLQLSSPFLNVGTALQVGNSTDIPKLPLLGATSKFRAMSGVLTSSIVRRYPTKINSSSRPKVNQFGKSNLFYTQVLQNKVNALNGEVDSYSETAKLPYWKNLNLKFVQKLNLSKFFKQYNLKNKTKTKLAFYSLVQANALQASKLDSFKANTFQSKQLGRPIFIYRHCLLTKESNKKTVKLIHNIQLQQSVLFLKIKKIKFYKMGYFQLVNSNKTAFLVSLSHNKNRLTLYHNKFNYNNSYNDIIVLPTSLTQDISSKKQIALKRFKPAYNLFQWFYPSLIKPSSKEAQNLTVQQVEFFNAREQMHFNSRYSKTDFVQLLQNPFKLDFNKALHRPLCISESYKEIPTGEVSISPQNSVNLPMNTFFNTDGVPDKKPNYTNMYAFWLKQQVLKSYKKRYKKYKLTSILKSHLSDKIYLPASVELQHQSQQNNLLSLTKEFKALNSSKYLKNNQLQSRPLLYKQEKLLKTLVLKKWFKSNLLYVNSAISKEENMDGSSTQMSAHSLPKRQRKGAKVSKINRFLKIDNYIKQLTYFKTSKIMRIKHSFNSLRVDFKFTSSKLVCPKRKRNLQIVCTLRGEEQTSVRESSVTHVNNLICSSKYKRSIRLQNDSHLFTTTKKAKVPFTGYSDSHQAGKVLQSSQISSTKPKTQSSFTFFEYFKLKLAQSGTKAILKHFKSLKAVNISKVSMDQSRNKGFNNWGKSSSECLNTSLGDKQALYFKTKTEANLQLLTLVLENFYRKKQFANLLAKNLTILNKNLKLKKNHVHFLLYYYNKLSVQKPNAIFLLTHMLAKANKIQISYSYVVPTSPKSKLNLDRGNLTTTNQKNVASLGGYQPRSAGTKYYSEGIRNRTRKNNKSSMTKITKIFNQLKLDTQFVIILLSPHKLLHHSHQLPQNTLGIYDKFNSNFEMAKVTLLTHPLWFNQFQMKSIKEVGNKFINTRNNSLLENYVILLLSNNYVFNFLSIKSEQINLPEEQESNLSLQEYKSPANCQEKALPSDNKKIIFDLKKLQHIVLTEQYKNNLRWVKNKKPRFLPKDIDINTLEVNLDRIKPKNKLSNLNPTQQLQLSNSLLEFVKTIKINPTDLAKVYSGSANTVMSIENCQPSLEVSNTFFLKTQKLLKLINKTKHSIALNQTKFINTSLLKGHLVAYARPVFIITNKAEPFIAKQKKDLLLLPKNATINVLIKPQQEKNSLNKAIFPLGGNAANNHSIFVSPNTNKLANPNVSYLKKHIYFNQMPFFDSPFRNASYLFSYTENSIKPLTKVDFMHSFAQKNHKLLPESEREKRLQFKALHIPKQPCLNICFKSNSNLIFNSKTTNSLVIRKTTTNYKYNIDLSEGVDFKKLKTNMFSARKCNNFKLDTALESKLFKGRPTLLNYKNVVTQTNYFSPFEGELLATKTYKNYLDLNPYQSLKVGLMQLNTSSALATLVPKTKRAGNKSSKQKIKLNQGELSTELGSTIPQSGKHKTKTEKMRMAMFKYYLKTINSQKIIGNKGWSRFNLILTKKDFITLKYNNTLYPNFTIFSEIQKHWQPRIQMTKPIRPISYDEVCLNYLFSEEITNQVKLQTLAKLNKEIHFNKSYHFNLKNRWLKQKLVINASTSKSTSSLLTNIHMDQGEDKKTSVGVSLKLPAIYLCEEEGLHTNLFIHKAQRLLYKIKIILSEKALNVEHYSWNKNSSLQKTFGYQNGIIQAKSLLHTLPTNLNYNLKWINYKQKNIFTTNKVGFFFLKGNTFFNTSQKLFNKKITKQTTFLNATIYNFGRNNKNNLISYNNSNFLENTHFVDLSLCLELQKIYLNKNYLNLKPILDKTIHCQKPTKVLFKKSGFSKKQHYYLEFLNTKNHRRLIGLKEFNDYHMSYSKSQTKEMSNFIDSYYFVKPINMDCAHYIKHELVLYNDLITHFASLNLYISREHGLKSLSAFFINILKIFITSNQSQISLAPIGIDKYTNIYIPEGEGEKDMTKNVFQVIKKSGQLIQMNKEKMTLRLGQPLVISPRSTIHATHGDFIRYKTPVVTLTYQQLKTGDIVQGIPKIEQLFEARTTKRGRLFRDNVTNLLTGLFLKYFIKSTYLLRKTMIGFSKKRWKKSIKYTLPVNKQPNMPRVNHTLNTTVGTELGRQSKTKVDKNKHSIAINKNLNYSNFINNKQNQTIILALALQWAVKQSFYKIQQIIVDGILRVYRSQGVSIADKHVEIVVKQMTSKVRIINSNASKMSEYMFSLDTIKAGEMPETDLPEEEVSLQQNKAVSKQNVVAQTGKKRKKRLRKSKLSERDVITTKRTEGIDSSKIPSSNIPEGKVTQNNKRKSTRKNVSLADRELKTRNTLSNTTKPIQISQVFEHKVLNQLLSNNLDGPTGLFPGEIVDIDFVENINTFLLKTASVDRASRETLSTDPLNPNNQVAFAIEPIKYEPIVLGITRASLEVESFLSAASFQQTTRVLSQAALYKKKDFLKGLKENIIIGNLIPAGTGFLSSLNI
UniProt Q7X8Q2: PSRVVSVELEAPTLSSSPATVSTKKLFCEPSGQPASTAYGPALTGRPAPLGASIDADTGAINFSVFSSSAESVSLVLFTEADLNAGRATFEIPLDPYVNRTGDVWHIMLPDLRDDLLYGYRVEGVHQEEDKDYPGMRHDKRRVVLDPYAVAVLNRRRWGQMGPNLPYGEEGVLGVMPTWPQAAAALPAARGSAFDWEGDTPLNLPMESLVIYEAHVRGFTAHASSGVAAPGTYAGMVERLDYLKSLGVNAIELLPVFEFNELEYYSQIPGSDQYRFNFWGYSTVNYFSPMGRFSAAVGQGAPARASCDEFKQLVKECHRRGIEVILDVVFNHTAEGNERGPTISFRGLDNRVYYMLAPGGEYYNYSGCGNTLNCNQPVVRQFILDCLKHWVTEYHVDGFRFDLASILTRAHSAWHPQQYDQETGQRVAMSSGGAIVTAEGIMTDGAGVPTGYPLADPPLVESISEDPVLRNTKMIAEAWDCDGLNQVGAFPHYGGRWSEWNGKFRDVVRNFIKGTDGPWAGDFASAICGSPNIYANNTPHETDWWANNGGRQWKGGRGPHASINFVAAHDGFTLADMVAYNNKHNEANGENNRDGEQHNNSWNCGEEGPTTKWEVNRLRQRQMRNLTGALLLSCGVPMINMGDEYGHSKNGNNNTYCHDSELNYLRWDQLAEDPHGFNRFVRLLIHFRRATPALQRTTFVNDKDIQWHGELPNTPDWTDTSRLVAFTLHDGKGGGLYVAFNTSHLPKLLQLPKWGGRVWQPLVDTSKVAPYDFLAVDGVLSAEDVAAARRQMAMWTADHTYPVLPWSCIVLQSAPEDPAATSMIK

In one assay the target is T1, triple HA-tagged uL5c (chloroplast ribosomal protein uL5c) (Chlamydomonas reinhardtii) (UniProt Q8HTL1).
T1 sequence: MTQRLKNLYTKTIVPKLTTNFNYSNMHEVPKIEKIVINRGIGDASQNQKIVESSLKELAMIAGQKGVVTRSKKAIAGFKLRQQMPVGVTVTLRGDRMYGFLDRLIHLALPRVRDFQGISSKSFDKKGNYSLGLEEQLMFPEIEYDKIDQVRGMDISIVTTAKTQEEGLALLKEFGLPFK
Description: affinity purification with mass spectrometry; as a1, the control condition alone: cells kept at 25°C, no heat.
On to CGL38/LTD, for which the binding entry is “no binding (only control conditions (25°C, no heat))”.

Take ELIP1-like: the binding result was “no binding (only control conditions (25°C, no heat))”.

As for ELIP2-like, the binding entry was “no binding (only control conditions (25°C, no heat))”.

With CGL59/Y3IP1, the binding result is “no binding (only control conditions (25°C, no heat))”.

Another assay has as its target T1, triple HA-tagged uL5c (chloroplast ribosomal protein uL5c) (Chlamydomonas reinhardtii). Description: affinity purification with mass spectrometry; triple-HA-tagged uL5c (chloroplast ribosomes) as bait; cells cross-linked in vivo with 0.37% formaldehyde for 10 min; cells at 25°C (control) or 15 min / 180 min at 40°C; enrichment over untagged control (one-sided t-test, FDR < 0.05, S0 = 1) in at least one condition.
As to “Ferredoxin/thioredoxin reductase subunit A Cre16.g687294”, the binding result is “binds”.

As for HRB/C-type RNA helicase Cre01.g024251, the binding entry is reported as “binds”.

In the case of Stress response protein Cre15.g638400, the binding entry is given as “binds”.

As to DXR1, the binding entry is reported as “binds”.

Take GUN4: the binding result is recorded as “binds”.

Take LHCA9: the binding result is on record as “binds”.

Turning to PCC1, the binding entry is on record as “binds”.

For the substance CHLI2, the binding entry was “binds”.

For “Glycerol-3-phosphate acyltransferase Cre02.g143000”, the binding result was “binds”.

Turning to RBGA, the binding entry is listed as “binds”.

Consider PDS1, for which the binding entry was “binds”.

Take HYDEF (from UniProt Q6PSL5): the binding entry is reported as “binds”.

Take CPN23: the binding result is given as “binds”.

On to TEF5, for which the binding result was “binds”.

Consider CPN60B2, for which the binding entry is on record as “binds”.

As to HEM2, the binding result was “binds”.

Consider FTSZ1, for which the binding result is listed as “binds”.

With CGLD8/PAB, the binding result is “binds”.

As to FTRB, the binding result was “binds”.

In the case of MDH5, the binding entry is reported as “binds”.

HSP70B (from UniProt Q39603): the binding entry is “binds”.

As to Rhodanese-like protein Cre01.g003550, the binding result is given as “binds”.

As to Phosphatase Cre08.g365632, the binding entry was “binds”.

Turning to PRX5, the binding result is “binds”.

In the case of HEL62, the binding result is given as “binds”.

As for Putative fructokinase Cre09.g387050, the binding result is listed as “binds”.

For the substance CPLD20, the binding result is on record as “binds”.

In the case of TSF2, the binding result is “binds”.

On to GLN3, for which the binding result was “binds”.

Consider HCAR, for which the binding entry is reported as “binds”.

On to OPR2, for which the binding result is on record as “binds”.

As for rRNA Methyltransferase Cre17.g722250, the binding result is listed as “binds”.

On to TEF4, for which the binding result is reported as “binds”.

With “Glutamine amidotransferase-like protein Cre01.g056331”, the binding result is reported as “binds”.

Turning to CPN20, the binding result is listed as “binds”.

Take Methionyl tRNA synthase Cre08.g364650: the binding entry is listed as “binds”.

As to ZEP1 (from UniProt A0ACM8PZH8), the binding result is “binds”.

Consider HEL45, for which the binding result was “binds”.

As to CDJ1 (from UniProt Q66YD3), the binding entry is “binds”.

On to SHK5, for which the binding result was “binds”.

“Thylakoid organization protein Cre14.g616600”: the binding entry was “binds”.

In the case of SSS1, the binding entry is on record as “binds”.

Regarding Pyrophosphatase Cre10.g424100, the binding entry is “binds”.

For PPR protein Cre14.g611950, the binding entry was “binds”.

Regarding PRX6, the binding entry is “binds”.

CGL38/LTD: the binding entry is “binds”.

Turning to CPN60B1, the binding result was “binds”.

Turning to RMT1, the binding entry was “binds”.

As to GET3B, the binding result was “binds”.

With SBE1, the binding entry is reported as “binds”.

As to “FAD dependent oxidoreductase, photosynthesis Cre17.g744997”, the binding entry is “binds”.

Take trigger factor chaperone, TIG1: the binding result is recorded as “binds”.

Regarding CHLI1, the binding result is listed as “binds”.

Take FLAV: the binding result is reported as “binds”.

For Aldose 1-epimerase Cre05.g234651, the binding entry is reported as “binds”.

Consider ISA3, for which the binding result is recorded as “binds”.

In the case of CPKR, the binding result is given as “binds”.

HSP22E: the binding entry is reported as “binds”.

On to “Conserved in the Green Lineage 86 (CGL86)”, for which the binding result is recorded as “binds”.

Regarding Glutathione S-transferase Cre01.g044700, the binding entry is given as “binds”.

As for VTE3 (from UniProt Q6VPQ2), the binding result is listed as “binds”.

Turning to CCB4, the binding entry is “binds”.

With “Glyoxylate/succinic semialdehyde reductase Cre06.g278148”, the binding entry was “binds”.

As for TPIC1, the binding result is “binds”.

As for RNA helicase Cre03.g213649, the binding entry is on record as “binds”.

Turning to moxR ATPase Cre13.g603225, the binding entry is given as “binds”.

For the substance GAT1, the binding result is reported as “binds”.

Consider “Rieske protein, Ferredoxin related Cre02.g093650”, for which the binding result was “binds”.

On to “Acclimation of Photosynthesis to the environment 1 (APE1)”, for which the binding entry was “binds”.

As for RAF2, the binding entry was “binds”.

For the substance Peptidase Cre02.g083065, the binding result is “binds”.

Turning to Acylaminoacyl-peptidase Cre07.g313122, the binding result is reported as “binds”.

On to FTSZ2, for which the binding entry is on record as “binds”.

On to APX1 (from UniProt O49822), for which the binding result was “binds”.

“Riboflavin biosynthesis protein Cre14.g620350”: the binding entry is recorded as “binds”.

As to AAT2, the binding result is reported as “binds”.

For TAL2, the binding entry is on record as “binds”.

CPN11: the binding entry is listed as “binds”.

On to RH39, for which the binding result is listed as “binds”.

In the case of “4-Hydroxy-tetrahydrodipicolinate reductase Cre14.g627850”, the binding result is “binds”.

On to Flavin reductase Cre06.g300700, for which the binding result is given as “binds”.

On to AMA3, for which the binding entry is recorded as “binds”.

As for CGL102/HCF244, the binding result is recorded as “binds”.

THF1: the binding entry is “binds”.

Consider “Glucose-6-phosphate 1-epimerase Cre16.g677450”, for which the binding entry is listed as “binds”.

In the case of ZDS1, the binding result was “binds”.

With CGE1, the binding result is on record as “binds”.

Turning to MSH7, the binding result is reported as “binds”.

For the substance CRD1, the binding entry is given as “binds”.

For SSS2, the binding entry is reported as “binds”.

Take ELIP1-like: the binding result was “binds”.

CGL27: the binding entry is recorded as “binds”.

For the substance OHP2, the binding result was “binds”.

Take Pseudoglucan protein Cre03.g183300: the binding entry was “binds”.

As to “Thiosulfate sulfurtransferase Cre13.g573250”, the binding result is reported as “binds”.

For the substance DVR1, the binding entry is “binds”.

Turning to GWD2, the binding entry is listed as “binds”.

For CTH1, the binding result is on record as “binds”.

Turning to ELIP2-like, the binding entry is recorded as “binds”.

As to RBD1, the binding entry is “binds”.

As to CGL59/Y3IP1, the binding result is on record as “binds”.

RPOC2 (from UniProt Q7PCJ6 1-3120): the binding result is recorded as “binds”.

Turning to ArfB, the binding result is on record as “binds”.

Regarding CYP97C3, the binding result is “binds”.

Turning to POR1, the binding entry is recorded as “binds”.

RFK2: the binding result was “binds”.

As to Phosphatase Cre06.g284650, the binding result is “binds”.

For the substance BCC2, the binding result is “binds”.

With CPLD42, the binding entry is reported as “binds”.

Regarding NTR4, the binding result was “binds”.

As for RPI1, the binding result was “binds”.

As to “FAD/NAD(P)-binding oxidoreductase Cre01.g005950”, the binding entry was “binds”.

Take SBP1: the binding result is listed as “binds”.

Regarding Thioredoxin Cre17.g715500, the binding entry is on record as “binds”.

For the substance ISA1 (from UniProt Q7X8Q2), the binding entry is on record as “binds”.
